From PubChem BioAssay (EPA / NIEHS)
The shares of active, inactive and inconclusive entries below differ from those in the screen. For some of these results: A potency beside an inconclusive call is a rough fit, not a confirmed value. Calls of active or inactive are those of the source. The calls were made as follows: active = hit-call score of the fitted dose curve at least 0.9, where 1 is the maximum; inconclusive = response in the unintended direction; inactive = score below 0.9.

Amino acid sequences for entries named in this document (tags omitted). A change or cut given only in a name is not applied to a line headed by its entry.
UniProt Q9UNQ0: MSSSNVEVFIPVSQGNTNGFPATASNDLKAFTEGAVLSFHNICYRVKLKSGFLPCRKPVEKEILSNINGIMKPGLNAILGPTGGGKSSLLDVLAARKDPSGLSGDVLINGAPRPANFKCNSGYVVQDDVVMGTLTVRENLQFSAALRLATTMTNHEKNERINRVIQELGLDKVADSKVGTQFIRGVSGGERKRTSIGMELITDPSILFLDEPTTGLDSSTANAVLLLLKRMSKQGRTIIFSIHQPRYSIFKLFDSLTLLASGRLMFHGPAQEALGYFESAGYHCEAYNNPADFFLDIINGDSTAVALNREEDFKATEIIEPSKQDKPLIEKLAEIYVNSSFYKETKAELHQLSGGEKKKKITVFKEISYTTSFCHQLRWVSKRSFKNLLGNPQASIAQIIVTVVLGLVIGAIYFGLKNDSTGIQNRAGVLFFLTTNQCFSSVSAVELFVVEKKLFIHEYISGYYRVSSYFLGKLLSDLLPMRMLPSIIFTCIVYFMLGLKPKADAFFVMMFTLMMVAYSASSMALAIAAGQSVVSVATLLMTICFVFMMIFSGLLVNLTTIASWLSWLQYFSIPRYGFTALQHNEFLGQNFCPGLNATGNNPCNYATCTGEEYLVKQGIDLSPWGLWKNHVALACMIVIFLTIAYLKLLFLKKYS
UniProt P11712, whole entry, looked up: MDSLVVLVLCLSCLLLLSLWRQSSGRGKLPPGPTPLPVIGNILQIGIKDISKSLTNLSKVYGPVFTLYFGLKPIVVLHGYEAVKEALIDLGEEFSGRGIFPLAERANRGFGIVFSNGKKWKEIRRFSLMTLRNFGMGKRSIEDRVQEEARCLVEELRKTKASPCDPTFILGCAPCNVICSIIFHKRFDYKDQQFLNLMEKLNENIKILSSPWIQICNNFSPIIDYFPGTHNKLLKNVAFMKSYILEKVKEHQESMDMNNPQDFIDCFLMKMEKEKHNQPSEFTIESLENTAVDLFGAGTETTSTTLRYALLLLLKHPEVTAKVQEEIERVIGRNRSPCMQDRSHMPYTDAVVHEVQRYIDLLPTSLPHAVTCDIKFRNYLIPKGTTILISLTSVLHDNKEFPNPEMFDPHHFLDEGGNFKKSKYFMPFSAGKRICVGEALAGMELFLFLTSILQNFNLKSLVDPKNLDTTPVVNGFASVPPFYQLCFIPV
UniProt P04406: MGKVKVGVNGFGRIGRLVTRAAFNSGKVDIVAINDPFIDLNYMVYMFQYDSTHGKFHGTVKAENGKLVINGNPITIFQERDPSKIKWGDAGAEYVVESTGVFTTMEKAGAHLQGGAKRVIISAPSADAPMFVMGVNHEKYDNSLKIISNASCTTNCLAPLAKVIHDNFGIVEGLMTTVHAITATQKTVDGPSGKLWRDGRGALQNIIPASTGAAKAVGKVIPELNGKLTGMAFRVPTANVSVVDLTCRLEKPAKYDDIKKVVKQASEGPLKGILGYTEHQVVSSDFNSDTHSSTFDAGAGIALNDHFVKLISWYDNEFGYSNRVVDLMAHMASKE
UniProt P20813: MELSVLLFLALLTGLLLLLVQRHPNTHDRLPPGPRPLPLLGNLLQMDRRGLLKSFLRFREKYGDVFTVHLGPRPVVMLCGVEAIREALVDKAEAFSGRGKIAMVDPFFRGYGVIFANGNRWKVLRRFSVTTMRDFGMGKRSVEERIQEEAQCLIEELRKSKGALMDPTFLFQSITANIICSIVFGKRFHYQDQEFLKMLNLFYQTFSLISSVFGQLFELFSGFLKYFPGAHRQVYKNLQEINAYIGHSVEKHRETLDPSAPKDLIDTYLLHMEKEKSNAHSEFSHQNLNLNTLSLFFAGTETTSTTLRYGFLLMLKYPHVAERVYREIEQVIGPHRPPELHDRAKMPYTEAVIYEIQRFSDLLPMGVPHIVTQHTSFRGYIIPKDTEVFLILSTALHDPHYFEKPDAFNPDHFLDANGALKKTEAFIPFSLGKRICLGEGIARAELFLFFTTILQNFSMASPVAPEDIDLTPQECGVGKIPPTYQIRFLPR
UniProt P08684, whole entry, looked up: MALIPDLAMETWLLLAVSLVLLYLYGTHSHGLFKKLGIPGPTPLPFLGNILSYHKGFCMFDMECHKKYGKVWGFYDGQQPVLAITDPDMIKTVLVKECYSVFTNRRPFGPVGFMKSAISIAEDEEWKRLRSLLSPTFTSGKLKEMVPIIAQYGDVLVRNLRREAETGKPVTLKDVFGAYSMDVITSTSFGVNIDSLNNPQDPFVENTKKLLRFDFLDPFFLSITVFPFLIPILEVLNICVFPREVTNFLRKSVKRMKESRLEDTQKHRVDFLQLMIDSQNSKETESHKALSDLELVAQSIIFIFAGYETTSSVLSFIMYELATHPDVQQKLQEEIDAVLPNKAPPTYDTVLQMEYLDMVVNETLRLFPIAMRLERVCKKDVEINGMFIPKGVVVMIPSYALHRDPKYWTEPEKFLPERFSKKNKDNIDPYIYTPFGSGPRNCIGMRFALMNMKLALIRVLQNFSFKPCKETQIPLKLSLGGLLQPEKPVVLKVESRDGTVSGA
UniProt P33261, whole entry, looked up: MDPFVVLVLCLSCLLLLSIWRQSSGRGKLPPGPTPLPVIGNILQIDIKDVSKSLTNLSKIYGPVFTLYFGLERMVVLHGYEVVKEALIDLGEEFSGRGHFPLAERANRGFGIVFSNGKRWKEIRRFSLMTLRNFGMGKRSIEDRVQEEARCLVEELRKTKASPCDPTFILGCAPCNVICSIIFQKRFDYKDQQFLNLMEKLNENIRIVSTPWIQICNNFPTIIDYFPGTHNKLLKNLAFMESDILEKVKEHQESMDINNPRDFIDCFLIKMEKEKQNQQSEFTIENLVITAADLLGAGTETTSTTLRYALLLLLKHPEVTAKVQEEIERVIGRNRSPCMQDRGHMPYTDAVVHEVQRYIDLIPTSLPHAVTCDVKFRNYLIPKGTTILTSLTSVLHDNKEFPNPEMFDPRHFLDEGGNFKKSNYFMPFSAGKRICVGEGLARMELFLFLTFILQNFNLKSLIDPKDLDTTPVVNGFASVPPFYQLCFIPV

How the values were obtained:
[1] = read-out: Broad substrate specificity ATP-binding cassette transporter ABCG2 (Homo sapiens) (UniProt Q9UNQ0); assay: CLD_ABCG2_24hr: CellzDirect (CLD) Gene Expression Assay for ABC Transporter (ABCG2) at 24 hours (AID 2283685);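 as to AC50: AC50 is for induction meaning signal gain over DMSO vehicle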
Method in brief: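 Primary human hepatocytes were dosed daily with ToxCast chemicals at multiple concentrations (vehicle 0.2% DMSO). ABCG2 mRNA was measured at 24 h by qNPA chemiluminescence; induction was scored as gain of signal versus DMSO.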

[2] = read-out: Cytochrome P450 2C9 (Homo sapiens) (UniProt P11712); assay: CLD_CYP2C9_24hr: CellzDirect (CLD) Gene Expression Assay for xenobiotic metabolism (CYP2C9) at 24 hours (AID 2283688);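 as to AC50: potency for induction meaning a rise in CYP2C9 mRNA over DMSO vehicle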
Method in brief: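 Primary human hepatocytes from two donor preparations, dosed daily for two days at multiple concentrations; vehicle 0.2% DMSO. CYP2C9 mRNA induction at 24 h measured by qNPA chemiluminescence relative to DMSO; cytotoxicity annotated from morphology.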

[3] = read-out: HMG-CoA synthase (HMGCS2), HMGCS2 (gene 3158); assay: CLD_HMGCS2_24hr: CellzDirect (CLD) Gene Expression Assay for HMG-CoA synthase (HMGCS2) at 24 hours (AID 2283691)
Method in brief: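 Primary human hepatocytes from two donor preparations, dosed daily with fresh solutions; vehicle 0.2% DMSO, 24 h harvest. HMGCS2 mRNA quantified by qNPA with S1 nuclease digestion and chemiluminescence; gain fitted versus DMSO, cytotoxicity annotated by morphology.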

[4] = read-out: alkyl and aryl transferase (GSTA2), GSTA2 (gene 2939); assay: CLD_GSTA2_24hr: CellzDirect (CLD) Gene Expression Assay for alkyl and aryl transferase (GSTA2) at 24 hours (AID 2283693)
Method in brief: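 Primary human hepatocytes (two donor preparations) dosed daily for two days with chemicals at multiple concentrations (vehicle 0.2% DMSO); GSTA2 mRNA at 24 h measured by qNPA chemiluminescence, gain-of-signal versus DMSO.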

[5] = read-out: sulfotransferase (SULT2A), SULT2A1 (gene 6822); assay: CLD_SULT2A_24hr: CellzDirect (CLD) Gene Expression Assay for sulfotransferase (SULT2A) at 24 hours (AID 2283694);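 also: potency for increased SULT2A1 mRNA level as induction over DMSO baseline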
Method in brief: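 Primary human hepatocytes from two donor preparations were dosed daily with fresh solutions, vehicle 0.2% DMSO. At 24 h, lysates went to quantitative nuclease protection (qNPA) with S1 digestion and chemiluminescent readout. Cytotoxicity was annotated from phase-contrast morphology.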

[6] = read-out: ABC Transporter (ABCB11), ABCB11 (gene 8647); assay: CLD_ABCB11_48hr: CellzDirect (CLD) Gene Expression Assay for ABC Transporter (ABCB11) at 48 hours (AID 2283697)
Method in brief: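 Primary human hepatocytes from two donor preparations dosed daily for two days at multiple concentrations; 0.2% DMSO vehicle. ABCB11 mRNA at 48 h by quantitative nuclease protection assay, chemiluminescence; fitted for induction versus DMSO.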

[7] = CLD_ACTIN_48hr: CellzDirect (CLD) Gene Expression Assay for Baseline Control (Actin) at 48 hours (AID 2283702)
Method in brief: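 Primary human hepatocytes (two donor preparations) dosed daily for two days with ToxCast chemicals at multiple concentrations versus 0.2% DMSO vehicle; harvested at 48 h. Actin mRNA measured as a background control by quantitative nuclease protection assay with chemiluminescence.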

[8] = read-out: xenobiotic metabolism (CYP1A1), CYP1A1 (gene 1543); assay: CLD_CYP1A1_48hr: CellzDirect (CLD) Gene Expression Assay for xenobiotic metabolism (CYP1A1) at 48 hours (AID 2283705)
Method in brief: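 Primary human hepatocytes from two donors dosed daily for two days at multiple concentrations, 0.2% DMSO vehicle; CYP1A1 mRNA induction at 48 h by qNPA chemiluminescence. Cytotoxicity noted by phase-contrast morphology.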

[9] = read-out: Glyceraldehyde-3-phosphate dehydrogenase (Homo sapiens) (UniProt P04406); assay: CLD_GAPDH_48hr: CellzDirect (CLD) Gene Expression Assay for Baseline Control (Glyceraldehyde 3-phosphate dehydrogenase) at 48 hours (AID 2283706)
Method in brief: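 Primary human hepatocytes dosed daily for two days with fresh chemical at multiple concentrations, 0.2% DMSO vehicle; GAPDH mRNA measured at 48 h by quantitative nuclease protection assay with chemiluminescence, fitted upward relative to DMSO as background control.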

[10] = read-out: organic anion transporter (SLCO1B1), SLCO1B1 (gene 10599); assay: CLD_SLCO1B1_48hr: CellzDirect (CLD) Gene Expression Assay for organic anion transporter (SLCO1B1) at 48 hours (AID 2283707)
Method in brief: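 Primary human hepatocytes from two donor preparations dosed daily for two days with multiple concentrations, 0.2% DMSO vehicle. SLCO1B1 mRNA at 48 h by quantitative nuclease protection assay, chemiluminescence; gain-of-signal fitted versus DMSO.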

[11] = read-out: alkyl and aryl transferase (GSTA2), GSTA2 (gene 2939); assay: CLD_GSTA2_48hr: CellzDirect (CLD) Gene Expression Assay for alkyl and aryl transferase (GSTA2) at 48 hours (AID 2283708);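 also: active means mRNA induction above DMSO vehicle baseline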
Method in brief: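 Primary human hepatocytes dosed daily for two days (0.2% DMSO vehicle), harvested at 48 h. GSTA2 mRNA induction measured by quantitative nuclease protection assay with chemiluminescent imaging, fitted for gain of signal relative to DMSO.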

[12] = read-out: Glyceraldehyde-3-phosphate dehydrogenase (Homo sapiens) (UniProt P04406); assay: CLD_GAPDH_24hr: CellzDirect (CLD) Gene Expression Assay for Baseline Control (Glyceraldehyde 3-phosphate dehydrogenase) at 24 hours (AID 2283692)
Method in brief: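 Primary human hepatocytes (two donor preparations) dosed daily for two days, 0.2% DMSO vehicle; GAPDH mRNA measured at 24 h by qNPA chemiluminescence as a background control, gain-of-signal fitted against DMSO.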

[13] = read-out: Cytochrome P450 2B6 (Homo sapiens) (UniProt P20813); assay: CLD_CYP2B6_48hr: CellzDirect (CLD) Gene Expression Assay for xenobiotic metabolism (CYP2B6) at 48 hours (AID 2283699);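 also: actives raise transcript level above DMSO so potency reflects induction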
Method in brief: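 Primary human hepatocytes dosed daily for two days over multiple concentrations, 0.2% DMSO vehicle; CYP2B6 mRNA quantified at 48 h by qNPA chemiluminescence. Induction fitted as gain of signal versus DMSO; cytotoxicity annotated by morphology.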

[14] = read-out: Cytochrome P450 3A4 (Homo sapiens) (UniProt P08684); assay: CLD_CYP3A4_24hr: CellzDirect (CLD) Gene Expression Assay for xenobiotic metabolism (CYP3A4) at 24 hours (AID 2283689)
Method in brief: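 Primary human hepatocytes from two donors dosed daily with fresh compound for two days, 0.2% DMSO vehicle. CYP3A4 mRNA at 24 hr by qNPA chemiluminescence; gain-of-signal fit versus DMSO, cytotoxicity flagged by morphology.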

[15] = read-out: organic anion transporter (SLCO1B1), SLCO1B1 (gene 10599); assay: CLD_SLCO1B1_24hr: CellzDirect (CLD) Gene Expression Assay for organic anion transporter (SLCO1B1) at 24 hours (AID 2283690)
Method in brief: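 Primary human hepatocytes (two donor preparations) dosed daily for two days with chemicals at multiple concentrations, 0.2% DMSO vehicle. SLCO1B1 mRNA at 24 h measured by qNPA chemiluminescence; induction fitted relative to DMSO.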

[16] = read-out: ABC Transporter (ABCB1), ABCB1 (gene 5243); assay: CLD_ABCB1_48hr: CellzDirect (CLD) Gene Expression Assay for ABC Transporter (ABCB1) at 48 hours (AID 2283695)
Method in brief: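 Primary human hepatocytes from two donor preparations dosed daily on two consecutive days with 0.2% DMSO vehicle. Harvest at 48 h. ABCB1 mRNA quantified by qNPA with chemiluminescence and fitted for gain of signal versus DMSO.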

[17] = read-out: Cytochrome P450 2C19 (Homo sapiens) (UniProt P33261); assay: CLD_CYP2C19_48hr: CellzDirect (CLD) Gene Expression Assay for xenobiotic metabolism (CYP2C19) at 48 hours (AID 2283700)
Method in brief: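 Primary human hepatocytes (two donor preparations) dosed daily for two days, harvested at 48 h; CYP2C19 mRNA induction measured by qNPA chemiluminescence. Gain-of-signal fitted relative to 0.2% DMSO vehicle as baseline.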

[18] = read-out: Broad substrate specificity ATP-binding cassette transporter ABCG2 (Homo sapiens) (UniProt Q9UNQ0); assay: CLD_ABCG2_48hr: CellzDirect (CLD) Gene Expression Assay for ABC Transporter (ABCG2) at 48 hours (AID 2283704);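 also: potency for induction of ABCG2 mRNA above the DMSO baseline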
Method in brief: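 Primary human hepatocytes from two donors, dosed daily for 2 days, 0.2% DMSO vehicle, several concentrations. ABCG2 mRNA at 48 h by qNPA chemiluminescence, gain fitted versus DMSO; cytotoxicity flagged by morphology.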

Measured: AC50

CCSC(=O)N(CC)C1CCCCC1
inconclusive: [2] 20 µM | [5] 20 µM | [7] 0.000671 µM | [8] 1.89 µM
inactive: [1] | [3] | [4] | [6] | [9] | [10]
active: [11] 7.96 µM

CC1(C(=O)Nc2ccc(O)c(Cl)c2Cl)CCCCC1
inactive: [9] | [11]
inconclusive: [1] 0.000471 µM | [2] 0.0004 µM | [12] 20 µM | [4] 0.000228 µM | [6] 20 µM | [13] 0.00851 µM | [8] 0.0557 µM | [10] 20 µM

CS(=O)(=O)c1ccc(C(=O)C2C(=O)CCCC2=O)c([N+](=O)[O-])c1
inconclusive: [1] 20 µM | [5] 20 µM | [8] 20 µM | [10] 20 µM
inactive: [14] | [3] | [4] | [6] | [13] | [9]

CC(C)N(C(=O)COc1nnc(C(F)(F)F)s1)c1ccc(F)cc1
inconclusive: [2] 20 µM | [15] 0.146 µM | [3] 20 µM | [6] 11.9 µM | [17] 6.54 µM
inactive: [1] | [4] | [16] | [7] | [9]

CC(C)N1C(=O)c2ccccc2NS1(=O)=O
inactive: [1] | [3] | [12] | [17] | [8] | [9]
inconclusive: [2] 0.00586 µM | [15] 0.00395 µM | [6] 0.0097 µM | [13] 0.00454 µM | [18] 20 µM

CCC(C)(NC(=O)c1cc(Cl)c(C)c(Cl)c1)C(=O)CCl (centres undefined)
inactive: [4]
active: [14] 4.49 µM
inconclusive: [1] 38.3 µM | [3] 20 µM | [6] 20 µM | [17] 20 µM | [9] 2.92 µM

COc1cc(OC)nc(NC(=O)NS(=O)(=O)c2ncccc2OCC(F)(F)F)n1
inactive: [2] | [14] | [6] | [7] | [10]
inconclusive: [1] 20 µM | [15] 20 µM | [12] 20 µM | [4] 20 µM | [9] 20 µM | [11] 20 µM

CSc1nc(NC(C)C)nc(NC(C)C)n1
inconclusive: [1] 20 µM | [15] 20 µM | [3] 20 µM | [12] 0.0177 µM | [6] 20 µM | [17] 20 µM | [7] 20 µM | [9] 20 µM | [10] 20 µM
